# Results from PubChem BioAssay AID2685 (National Center for Advancing Translational Sciences (NCATS), 2010).
# The other results are listed elsewhere or left out. These are further read-outs of the screen, such as a control signal, another cell line or another target. No call is given for them. Compounds called inactive in the main read-out are mostly missing here. Potencies come from curve fits of mixed quality, noted in brackets.
# Experiment: qHTS Assay for Lipid Storage Modulators in Drosophila S3 Cells;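 for cell number change: cells counted by Cell Tracker Red CMTPX staining in the red channel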
# Settings: BODIPY lipid droplet fluorescence, 18-24 h; for cell number change: measured here: cell count max response, cells fed with added oleic acid
# Method in brief: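 Drosophila S3 cells got compounds at several concentrations plus oleic acid (400 uM solution). Laser-scanning cytometry with 488 nm excitation read lipid droplets at 500-530 nm and cells at 575-640 nm. Percent activity was relative to 20 uM Triacsin C.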
# [1] = measured here: lipid fluorescence (Fed channel) AC50, cells fed with added oleic acid
# [2] = measured here: cell number channel AC50, cells fed with added oleic acid
Structure (SMILES),AC50 [1],cell number change [%],AC50 [2]
CCN(CC(=O)Nc1c(F)cccc1F)C(=O)COc1ccc2c(C)cc(=O)oc2c1,"6.51 µM [rising, single point]",–,–
COc1ccc(C)cc1-n1c(SCC(=O)NCC2CCCO2)nc2c([nH]c3ccccc32)c1=O (stereo not given),"29.1 µM [rising, single point]",-13.6,–
Oc1c(N=Nc2ccccn2)ccc2ccccc12,"3.66 µM [falling, full curve]",-95.5,"5.17 µM [falling, full curve]"
CNC(C)C#Cc1ccc2sc3cccc(OC)c3c(=O)c2c1 (stereo not given),"6.51 µM [rising, single point]",-4.49,–
COc1ccc(OC)c2c(C)cc(N3CCN(C(=O)c4ccc(Cl)cc4)CC3)nc12,–,42.2,–
Cc1cc2ccccc2n2c(SCC(=O)N3CCN(C(=O)c4ccco4)CC3)nnc12,–,-8.9,–
CCC(=O)Nc1cccc(C2=NOC3(C2)C[C@@H](C(N)=O)N(C(=O)COc2ccc(Cl)cc2)C3)c1 (stereo not given in full),"14.6 µM [rising, partial curve, poor fit]",22.4,–
O=C(Nc1nc(=S)ss1)c1ccc(Cl)cc1Cl,–,-22.1,"0.231 µM [falling, full curve, poor fit]"
Cc1c(NC(=O)c2ccc([N+](=O)[O-])o2)cccc1-c1nc2ncccc2o1,"5.62 µM [rising, single point]",-1.32,–
Cc1nnc(NC(=O)CCS(=O)(=O)c2ccccc2)s1,–,-22.9,"0.164 µM [falling, full curve, poor fit]"
C/C(=N/NC(=O)c1ccncc1)c1ccc(NC(=O)c2ccc(Cl)cc2Cl)cc1,"3.66 µM [rising, single point]",21.4,"7.31 µM [rising, partial curve, poor fit]"
CC(C)=C1C(=O)NN(c2cccc(Cl)c2)C1=O,"13 µM [falling, single point]",9.52,–
Oc1ccc(Nc2nc3ccccc3nc2Nc2ccc(O)cc2)cc1,–,-71.3,"29.1 µM [falling, partial curve, poor fit]"
O=C(COc1coc(CN2CCc3ccccc32)cc1=O)Nc1ccccc1,–,2.5,"0.0146 µM [falling, full curve, poor fit]"
CC(C)Cc1nc2oc3c(Cl)ncnc3c2c2c1CCCC2,–,-18.2,–
COC(=O)C1CCN(C(=O)NC(C)(C)C)CC1,–,-11.9,–
COc1ccccc1OCCNC(=O)c1cccc(S(=O)(=O)NCc2ccccc2)c1,"1.16 µM [rising, full curve]",-14.4,–
C/C(=N\N(c1ccccc1)c1ccccc1)c1ccco1,–,21.7,–
Cc1ccc(C)c(S(=O)(=O)N2CCCC2CNC(=O)C(=O)NC2CC2)c1 (stereo not given),–,58.2,"18.4 µM [rising, partial curve]"
COC(=O)[C@H](Cc1c[nH]c2ccccc12)NC(=O)NCc1ccccc1,"6.51 µM [falling, single point]",15.6,–
Cc1[nH]c2ccc(C(=O)NCCCN3CCCCCC3)cc2c1C,"5.17 µM [falling, full curve]",-7.78,–

Structure (SMILES),AC50 [1],cell number change [%],AC50 [2]
CC(C)C(=O)N1CCN(c2ccc(NC(=O)c3ccc4c(c3)OCCO4)cc2Cl)CC1,–,-13.6,–
Cn1c(=O)c2c(nc(N3CCc4ccccc4C3)n2C)n(C)c1=O,"0.00517 µM [falling, full curve, poor fit]",-12.7,–
CC(C)Oc1ccc(C(CCN)C2CCCCC2)cc1 (stereo not given),–,-68.7,"18.4 µM [falling, single point]"
Cc1ccc(NC(=O)COC(=O)c2ccc3c(c2)OCO3)c(C)c1,"0.103 µM [rising, full curve, poor fit]",16,–
COc1ccc(-n2nnc3c(=O)n(CC(=O)N4CCCc5ccccc54)cnc32)cc1,"1.64 µM [rising, partial curve]",–,"1.16 µM [rising, partial curve]"
Cc1ccc(C(C)NC(=O)c2cc(C)oc2C)cc1 (stereo not given),"0.00517 µM [falling, full curve, poor fit]",-12.4,–
Cc1ccc2c(c1)nnn2C1CCN(S(=O)(=O)c2cccc(S(=O)(=O)N(C)C)c2)CC1,–,-30.9,"0.000731 µM [falling, full curve, poor fit]"
Cc1cc(=O)oc2c(CN3CCC(C)CC3)c(O)c(Cl)cc12,–,–,"6.51 µM [falling, partial curve, poor fit]"
O=C(O)COc1ccccc1/C=N/NC(=O)Cc1csc(Nc2cccc(C(F)(F)F)c2)n1,"8.2 µM [rising, partial curve]",84.3,"7.31 µM [rising, partial curve]"
CCOC(=O)C1CCCN(c2c(NCCN(C)Cc3ccccc3)c(=O)c2=O)C1 (stereo not given),"0.0651 µM [falling, full curve]",2.58,–
O=C(Nc1ccccc1)Nc1cc(Cl)cc(Cl)c1,"14.6 µM [falling, partial curve]",-67.7,"20.6 µM [falling, single point]"
COc1cccc(/C=C/C(=O)OCCN2C(=O)c3ccccc3C2=O)c1,"29.1 µM [rising, single point]",57.4,"18.4 µM [rising, single point]"
Cc1cc(C)n(CC(=O)NNC(=O)c2ccc(NC(=O)CC#N)cc2)n1,–,15.7,–
COc1ccc(N(C(C)C(=O)NN=C2CCCCCCC2)S(C)(=O)=O)cc1 (stereo not given),"25.9 µM [rising, single point]",40.4,"29.1 µM [rising, single point]"
CCn1c(SC)nnc1C1CCCN(CC(=O)Nc2ccccc2N2CCOCC2)C1 (stereo not given),–,6.52,–
O=C(NCc1ccccc1)c1cccc(NS(=O)(=O)c2cccc3cccnc23)c1,"1.3 µM [rising, full curve]",6.91,–
C=CCn1c(SCC(C)=O)nc2scc(-c3ccco3)c2c1=O,"6.51 µM [rising, single point]",55.2,"16.4 µM [rising, partial curve, poor fit]"
Cc1cc(=O)oc2cc(OC(C)C(=O)N3CCCc4ccccc43)ccc12 (stereo not given),"0.092 µM [rising, full curve, poor fit]",7.66,–
Nn1cnnc1N/N=C/c1ccccc1C(F)(F)F,"8.2 µM [falling, partial curve]",-33.4,"0.13 µM [falling, full curve, poor fit]"
COc1cc(OC)cc(C(=O)Nc2cccc3ccccc23)c1,–,-21,–
Cc1ccc(C(=O)NCC(c2ccco2)N2CCc3ccccc3C2)cc1C (stereo not given),–,73.7,"8.2 µM [rising, partial curve]"

# 2 entries from above, bar-delimited:
Structure (SMILES) | AC50 [1] | cell number change [%] | AC50 [2]
Cc1[nH]c2ccc(C(=O)NCCCN3CCCCCC3)cc2c1C | 5.17 µM [falling, full curve] | -7.78 | –
CC(C)C(=O)N1CCN(c2ccc(NC(=O)c3ccc4c(c3)OCCO4)cc2Cl)CC1 | – | -13.6 | –

# The listing continues:

Structure (SMILES),AC50 [1],cell number change [%],AC50 [2]
COc1ccc(CNC(=O)COC(=O)C(CCSC)NC(=O)c2ccco2)cc1OC (stereo not given),"6.51 µM [falling, single point]",9.14,–
Oc1cccc2ccc(/C=C/c3c(F)cccc3Cl)nc12,"0.58 µM [rising, single point]",35,–
COc1cc(OC)c(NC(=O)CC(=O)Nc2cc(Cl)c(OC)cc2OC)cc1Cl,"18.4 µM [falling, partial curve]",17.9,–
COc1ccccc1Cn1nc(C(=O)O)c2ccccc2c1=O,–,32.5,"7.31 µM [rising, partial curve, poor fit]"
CCOC(=O)c1[nH]c(C)c(CN(CCc2ccccc2)S(C)(=O)=O)c1C,–,-15.8,–
O=C(/C=C/c1ccco1)c1ccc(NC(=O)C23CC4CC(CC(C4)C2)C3)cc1,"18.4 µM [falling, partial curve]",–,–
COC(=O)C1(C)NC(=O)c2ccccc2N1 (stereo not given),"0.164 µM [falling, full curve, poor fit]",-48.6,"16.4 µM [falling, partial curve, poor fit]"
Cc1ccc(S(=O)(=O)N2CCC(=O)N(C(COCc3cccc(C(F)(F)F)c3)C(C)C)CC2)cc1 (stereo not given),–,8.81,–
CC(NC(=O)Nc1ccc(Cl)c(Cl)c1)C(c1ccccc1)N1CCOCC1 (stereo not given),"4.11 µM [rising, single point]",5.1,–
Cc1sc(NC(=O)Cn2[nH]c(=O)c3ccccc3c2=O)nc1-c1ccccc1,"2.91 µM [rising, full curve]",8.68,–
C=CCOC(=O)/C(=C/c1cccnc1)NC(=O)c1ccccc1,"1.46 µM [rising, full curve]",26.7,"1.16 µM [rising, full curve, poor fit]"
COc1ccc(CCNC(=O)CSc2nnc(Cc3csc(N)n3)n2C)cc1OC,"29.1 µM [falling, single point]",3.17,–
CN(Cc1ccccc1)Cc1nc2c(c(=O)n(C)c(=O)n2C)n1CCCc1ccccc1,–,3.94,"6.51 µM [falling, single point]"
O=C(CCl)Nc1cccc(S(=O)(=O)NC2=NCCC2)c1,"6.51 µM [falling, single point]",–,–
COc1cccc(C2CC(C(F)(F)F)n3nc(C(=O)Nc4c(C)n(C)n(-c5ccccc5)c4=O)cc3N2)c1 (stereo not given),–,12.6,–
Cc1ccccc1NC(=O)Cc1nnc(SCC(=O)c2ccc(Br)cc2)n1C,"2.06 µM [rising, partial curve]",-23.2,–
N#CC1=C(N)NC(=S)C(C(N)=O)C1c1ccc(Cl)cc1Cl (stereo not given),–,-27.5,–
CC(=O)c1nc2ccccc2n1S(=O)(=O)c1ccc(C)cc1,"29.1 µM [rising, single point]",31.4,–
CCOc1ccc(CN2C(=O)c3ccccc3C2C(=O)NCC2CCCO2)cc1 (stereo not given),"1.16 µM [falling, single point]",2.05,–
